# Test results published in patent publication US20030170643A1, “Regulation of apoB treatment and drug screening for cardiovascular and metabolic disorders or syndromes” (priority 1999, published 2003).
# At least one structure is not confirmed: it was looked up by name or label, or the drawing left a doubt.
# System: rat hepatoma cells
# Experiment: TBARS assay of ROS in cell lysates of rat hepatoma cells
# Format: cell-based
# Details: fatty acid alone
# Description: FIG. 13 illustrates that either an iron chelator (DFX) or lipid antioxidants block DHA-stimulated apoB degradation and reactive oxygen species (ROS) production. Rat hepatoma cells were plated in culture wells and pre-incubated in media containing either DHA or DHA with one of the indicated compounds. Radiolabeled methionine/cysteine was added to the culture media for 15 minutes, after which time, the culture media were replaced by fresh media identical in composition except that radiolabeled methionine/cysteine were replaced by unlabeled methionone/cysteine. The recovery of labeled apoB100 ([^35S]-apoB100) from the media and cell lysate was determined at the indicated time points (with time 0 being the point when the fresh media were applied to the cells) by immunoprecipitating apoB species with a rabbit polyclonal antibody to rat apoB, resuspending the immunoprecipitates, combining aliquots from cell lysate and media samples from each well, resolving the protein contents of the combined immunoprecipitates by SDS-polyacrylamide gel electrophoresis (SDS-PAGE), and exposing the resultant gels to X-ray film in order to visualize the labeled apoB bands. […] In panel C, the ROS content of the cell lysates at the end of the experiment was measured by the standard TBARS assay (Stocks et al., 1974, Clin Sci Mol Med 47,215-222). […]
structure (smiles),measurement,value
"CC/C=C\C/C=C\C/C=C\C/C=C\C/C=C\C/C=C\CCC(=O)O [DHA, docosahexaenoic acid]","reactive oxygen species (ROS), TBARS assay, fatty acid compared to BSA",increases
